Experimental findings from paper doi:10.1101/2021.03.08.433705 are described below.

These are yes or no findings as the source states them, for the method shown. Binding seen in cells or lysates may run through a third protein. Binding calls can cover weak binding; strength is not graded here.

What all share (assay): co-IP
Assay [1] has as its target T1, KDM2B (endogenous) (human (endogenous in K562, MOLM14)) (UniProt Q8NHM5).
T1 sequence: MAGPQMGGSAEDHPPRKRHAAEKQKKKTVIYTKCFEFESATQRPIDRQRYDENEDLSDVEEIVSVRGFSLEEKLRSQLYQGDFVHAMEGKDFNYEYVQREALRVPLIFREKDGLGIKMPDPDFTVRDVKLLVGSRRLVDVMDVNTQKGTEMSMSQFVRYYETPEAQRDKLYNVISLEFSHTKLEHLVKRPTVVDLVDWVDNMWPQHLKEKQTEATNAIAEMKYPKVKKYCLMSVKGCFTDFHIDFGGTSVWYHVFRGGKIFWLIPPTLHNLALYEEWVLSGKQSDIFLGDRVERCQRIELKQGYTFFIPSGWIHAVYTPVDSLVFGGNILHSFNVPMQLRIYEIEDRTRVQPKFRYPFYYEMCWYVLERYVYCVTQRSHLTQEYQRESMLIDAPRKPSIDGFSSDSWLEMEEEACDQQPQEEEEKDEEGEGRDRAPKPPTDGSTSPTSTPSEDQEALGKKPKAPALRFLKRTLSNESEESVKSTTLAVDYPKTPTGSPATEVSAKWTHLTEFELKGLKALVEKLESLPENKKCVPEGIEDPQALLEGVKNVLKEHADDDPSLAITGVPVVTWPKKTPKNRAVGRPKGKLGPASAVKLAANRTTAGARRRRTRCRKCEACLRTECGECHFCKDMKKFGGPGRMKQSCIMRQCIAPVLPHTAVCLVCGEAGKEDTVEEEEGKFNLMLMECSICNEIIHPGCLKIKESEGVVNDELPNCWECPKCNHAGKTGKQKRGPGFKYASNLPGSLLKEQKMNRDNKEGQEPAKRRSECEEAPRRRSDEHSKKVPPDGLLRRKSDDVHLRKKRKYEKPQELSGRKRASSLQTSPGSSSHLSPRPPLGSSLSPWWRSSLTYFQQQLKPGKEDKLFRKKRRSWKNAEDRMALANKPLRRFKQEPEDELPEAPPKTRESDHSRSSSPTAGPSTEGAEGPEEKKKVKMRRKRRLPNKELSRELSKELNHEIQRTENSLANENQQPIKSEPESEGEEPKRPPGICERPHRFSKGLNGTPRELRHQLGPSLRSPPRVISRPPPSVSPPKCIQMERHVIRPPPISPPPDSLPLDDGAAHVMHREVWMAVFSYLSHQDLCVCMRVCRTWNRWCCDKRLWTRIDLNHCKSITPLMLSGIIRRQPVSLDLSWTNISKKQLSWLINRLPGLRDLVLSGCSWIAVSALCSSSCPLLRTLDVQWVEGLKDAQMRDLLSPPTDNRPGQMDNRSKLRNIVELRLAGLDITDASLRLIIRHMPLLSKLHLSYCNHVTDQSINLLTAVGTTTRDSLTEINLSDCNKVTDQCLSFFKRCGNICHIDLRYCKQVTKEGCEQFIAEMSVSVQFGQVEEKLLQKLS

Assay [2] addresses BCOR^PUFD-Tr (C-terminally truncated endogenous BCOR, K562) (human (endogenous in K562)).
The target of assay [3] is BCOR^PUFD-Tr (C-terminally truncated endogenous BCOR, MOLM14 bulk population) (human (endogenous in MOLM14)).
For assay [4], the target named is BCORL1 (endogenous, K562) (human (endogenous in K562)).

For the molecule “BCOR^PUFD-Tr (C-terminally truncated endogenous BCOR, K562) (human (endogenous in K562)) (domain or fragment)”, in assay [1], the binding result is recorded as “binds”.

B1: KDM2B (endogenous) (protein, UniProt Q8NHM5 1-1336)
chain: MAGPQMGGSAEDHPPRKRHAAEKQKKKTVIYTKCFEFESATQRPIDRQRYDENEDLSDVEEIVSVRGFSLEEKLRSQLYQGDFVHAMEGKDFNYEYVQREALRVPLIFREKDGLGIKMPDPDFTVRDVKLLVGSRRLVDVMDVNTQKGTEMSMSQFVRYYETPEAQRDKLYNVISLEFSHTKLEHLVKRPTVVDLVDWVDNMWPQHLKEKQTEATNAIAEMKYPKVKKYCLMSVKGCFTDFHIDFGGTSVWYHVFRGGKIFWLIPPTLHNLALYEEWVLSGKQSDIFLGDRVERCQRIELKQGYTFFIPSGWIHAVYTPVDSLVFGGNILHSFNVPMQLRIYEIEDRTRVQPKFRYPFYYEMCWYVLERYVYCVTQRSHLTQEYQRESMLIDAPRKPSIDGFSSDSWLEMEEEACDQQPQEEEEKDEEGEGRDRAPKPPTDGSTSPTSTPSEDQEALGKKPKAPALRFLKRTLSNESEESVKSTTLAVDYPKTPTGSPATEVSAKWTHLTEFELKGLKALVEKLESLPENKKCVPEGIEDPQALLEGVKNVLKEHADDDPSLAITGVPVVTWPKKTPKNRAVGRPKGKLGPASAVKLAANRTTAGARRRRTRCRKCEACLRTECGECHFCKDMKKFGGPGRMKQSCIMRQCIAPVLPHTAVCLVCGEAGKEDTVEEEEGKFNLMLMECSICNEIIHPGCLKIKESEGVVNDELPNCWECPKCNHAGKTGKQKRGPGFKYASNLPGSLLKEQKMNRDNKEGQEPAKRRSECEEAPRRRSDEHSKKVPPDGLLRRKSDDVHLRKKRKYEKPQELSGRKRASSLQTSPGSSSHLSPRPPLGSSLSPWWRSSLTYFQQQLKPGKEDKLFRKKRRSWKNAEDRMALANKPLRRFKQEPEDELPEAPPKTRESDHSRSSSPTAGPSTEGAEGPEEKKKVKMRRKRRLPNKELSRELSKELNHEIQRTENSLANENQQPIKSEPESEGEEPKRPPGICERPHRFSKGLNGTPRELRHQLGPSLRSPPRVISRPPPSVSPPKCIQMERHVIRPPPISPPPDSLPLDDGAAHVMHREVWMAVFSYLSHQDLCVCMRVCRTWNRWCCDKRLWTRIDLNHCKSITPLMLSGIIRRQPVSLDLSWTNISKKQLSWLINRLPGLRDLVLSGCSWIAVSALCSSSCPLLRTLDVQWVEGLKDAQMRDLLSPPTDNRPGQMDNRSKLRNIVELRLAGLDITDASLRLIIRHMPLLSKLHLSYCNHVTDQSINLLTAVGTTTRDSLTEINLSDCNKVTDQCLSFFKRCGNICHIDLRYCKQVTKEGCEQFIAEMSVSVQFGQVEEKLLQKLS
On to B1, for which the binding result in assay [2], in assay [3] and in assay [4] was “binds” in each case.

B2: RYBP (endogenous) (protein, UniProt Q8N488 1-228)
chain: MTMGDKKSPTRPKRQAKPAADEGFWDCSVCTFRNSAEAFKCSICDVRKGTSTRKPRINSQLVAQQVAQQYATPPPPKKEKKEKVEKQDKEKPEKDKEISPSVTKKNTNKKTKPKSDILKDPPSEANSIQSANATTKTSETNHTSRPRLKNVDRSTAQQLAVTVGNVTVIITDFKEKTRSSSTSSSTVTSSAGSEQQNQSSSGSESTDKGSSRSSTPKGDMSAVNDESF
As for B2, the binding entry in assay [4] is on record as “binds”.
